From article PMC3048478 come the findings set out here.

Chains of the proteins cited; added tags and fusions are not shown.
UniProt O95271: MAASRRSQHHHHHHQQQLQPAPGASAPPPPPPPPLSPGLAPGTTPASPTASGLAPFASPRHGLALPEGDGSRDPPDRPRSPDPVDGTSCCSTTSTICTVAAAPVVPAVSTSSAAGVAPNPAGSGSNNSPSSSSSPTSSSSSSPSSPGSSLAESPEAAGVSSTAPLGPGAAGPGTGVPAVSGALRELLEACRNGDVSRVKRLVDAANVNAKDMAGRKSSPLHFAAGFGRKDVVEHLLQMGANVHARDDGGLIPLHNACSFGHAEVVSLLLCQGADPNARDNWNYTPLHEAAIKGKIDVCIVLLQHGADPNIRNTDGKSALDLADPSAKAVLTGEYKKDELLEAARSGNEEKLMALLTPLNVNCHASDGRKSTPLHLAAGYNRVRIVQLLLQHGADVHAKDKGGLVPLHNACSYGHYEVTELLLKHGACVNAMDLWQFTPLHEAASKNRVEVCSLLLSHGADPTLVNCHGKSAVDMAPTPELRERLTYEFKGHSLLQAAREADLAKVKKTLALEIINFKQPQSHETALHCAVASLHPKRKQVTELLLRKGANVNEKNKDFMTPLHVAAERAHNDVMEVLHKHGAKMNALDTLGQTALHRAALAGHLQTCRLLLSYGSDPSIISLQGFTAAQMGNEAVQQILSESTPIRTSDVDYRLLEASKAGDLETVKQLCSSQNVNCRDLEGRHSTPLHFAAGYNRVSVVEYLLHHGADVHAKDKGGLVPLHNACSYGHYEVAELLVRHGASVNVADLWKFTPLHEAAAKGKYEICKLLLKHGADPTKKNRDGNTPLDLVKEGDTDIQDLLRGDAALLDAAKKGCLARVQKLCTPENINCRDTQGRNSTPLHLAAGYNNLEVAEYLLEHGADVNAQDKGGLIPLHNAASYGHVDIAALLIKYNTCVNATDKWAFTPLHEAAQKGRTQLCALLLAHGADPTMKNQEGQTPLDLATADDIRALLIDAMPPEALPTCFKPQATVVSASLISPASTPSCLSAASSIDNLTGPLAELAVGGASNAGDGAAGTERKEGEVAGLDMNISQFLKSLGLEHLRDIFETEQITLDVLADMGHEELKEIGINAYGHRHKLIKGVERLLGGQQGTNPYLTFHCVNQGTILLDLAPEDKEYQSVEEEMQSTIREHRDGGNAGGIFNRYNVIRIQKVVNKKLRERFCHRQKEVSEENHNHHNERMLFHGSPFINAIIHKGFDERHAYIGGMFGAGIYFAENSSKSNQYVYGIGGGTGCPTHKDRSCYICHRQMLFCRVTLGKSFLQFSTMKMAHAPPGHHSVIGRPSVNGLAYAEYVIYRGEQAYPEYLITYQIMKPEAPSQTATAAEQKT
UniProt Q9BXW9: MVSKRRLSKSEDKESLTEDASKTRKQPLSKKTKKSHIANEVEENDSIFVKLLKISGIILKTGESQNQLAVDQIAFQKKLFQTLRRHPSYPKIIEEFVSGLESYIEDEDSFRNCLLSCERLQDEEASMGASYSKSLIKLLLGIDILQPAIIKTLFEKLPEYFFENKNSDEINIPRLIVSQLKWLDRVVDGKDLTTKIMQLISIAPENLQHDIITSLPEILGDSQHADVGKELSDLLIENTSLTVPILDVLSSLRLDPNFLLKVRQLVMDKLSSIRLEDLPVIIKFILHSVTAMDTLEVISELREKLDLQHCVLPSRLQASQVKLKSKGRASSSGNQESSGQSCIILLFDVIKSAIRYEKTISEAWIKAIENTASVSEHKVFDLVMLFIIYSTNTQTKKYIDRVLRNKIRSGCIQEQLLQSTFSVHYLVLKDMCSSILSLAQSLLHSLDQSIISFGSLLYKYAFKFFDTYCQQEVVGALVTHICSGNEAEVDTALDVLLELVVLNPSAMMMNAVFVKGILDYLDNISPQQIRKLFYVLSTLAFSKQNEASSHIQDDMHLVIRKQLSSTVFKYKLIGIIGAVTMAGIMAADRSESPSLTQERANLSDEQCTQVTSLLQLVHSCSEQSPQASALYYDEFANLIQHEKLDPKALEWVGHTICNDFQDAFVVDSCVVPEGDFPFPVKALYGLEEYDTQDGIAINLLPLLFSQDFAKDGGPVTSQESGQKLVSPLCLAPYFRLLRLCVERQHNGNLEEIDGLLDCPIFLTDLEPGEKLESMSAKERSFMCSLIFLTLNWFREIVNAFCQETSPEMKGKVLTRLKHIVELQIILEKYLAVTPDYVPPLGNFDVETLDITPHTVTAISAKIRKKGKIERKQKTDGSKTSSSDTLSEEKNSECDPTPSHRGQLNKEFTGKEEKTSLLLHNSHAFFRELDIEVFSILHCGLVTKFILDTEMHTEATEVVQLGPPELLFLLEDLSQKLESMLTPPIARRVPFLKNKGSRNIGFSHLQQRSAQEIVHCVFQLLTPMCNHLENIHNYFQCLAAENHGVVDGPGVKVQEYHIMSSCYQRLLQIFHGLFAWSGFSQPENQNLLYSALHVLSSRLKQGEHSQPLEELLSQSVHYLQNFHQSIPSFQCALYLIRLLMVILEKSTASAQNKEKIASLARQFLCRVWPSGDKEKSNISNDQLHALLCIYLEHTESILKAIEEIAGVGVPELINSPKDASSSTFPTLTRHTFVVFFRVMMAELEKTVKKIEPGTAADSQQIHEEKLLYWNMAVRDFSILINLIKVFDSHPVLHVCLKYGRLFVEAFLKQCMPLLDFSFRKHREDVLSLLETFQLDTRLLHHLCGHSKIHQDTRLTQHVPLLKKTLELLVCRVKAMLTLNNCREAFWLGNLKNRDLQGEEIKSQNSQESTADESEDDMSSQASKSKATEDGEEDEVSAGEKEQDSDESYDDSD

The target of test [1] is tankyrase 1 (endogenous) (human (endogenous in HeLa and in PD20 fibroblasts)) (UniProt O95271). Description: co-IP; HeLa cell extracts immunoprecipitated with anti-TNKS1, anti-TNKS2 or anti-FANCD2 antibody; Western blot probed with anti-FANCD2 or TNKS1 antibodies. Background: Immunoblotting shows a protein as a band on a membrane.
The target of test [2] is T1, tankyrase 2 (endogenous, HeLa) (human (endogenous in HeLa)) (UniProt Q9H2K2).
T1 sequence: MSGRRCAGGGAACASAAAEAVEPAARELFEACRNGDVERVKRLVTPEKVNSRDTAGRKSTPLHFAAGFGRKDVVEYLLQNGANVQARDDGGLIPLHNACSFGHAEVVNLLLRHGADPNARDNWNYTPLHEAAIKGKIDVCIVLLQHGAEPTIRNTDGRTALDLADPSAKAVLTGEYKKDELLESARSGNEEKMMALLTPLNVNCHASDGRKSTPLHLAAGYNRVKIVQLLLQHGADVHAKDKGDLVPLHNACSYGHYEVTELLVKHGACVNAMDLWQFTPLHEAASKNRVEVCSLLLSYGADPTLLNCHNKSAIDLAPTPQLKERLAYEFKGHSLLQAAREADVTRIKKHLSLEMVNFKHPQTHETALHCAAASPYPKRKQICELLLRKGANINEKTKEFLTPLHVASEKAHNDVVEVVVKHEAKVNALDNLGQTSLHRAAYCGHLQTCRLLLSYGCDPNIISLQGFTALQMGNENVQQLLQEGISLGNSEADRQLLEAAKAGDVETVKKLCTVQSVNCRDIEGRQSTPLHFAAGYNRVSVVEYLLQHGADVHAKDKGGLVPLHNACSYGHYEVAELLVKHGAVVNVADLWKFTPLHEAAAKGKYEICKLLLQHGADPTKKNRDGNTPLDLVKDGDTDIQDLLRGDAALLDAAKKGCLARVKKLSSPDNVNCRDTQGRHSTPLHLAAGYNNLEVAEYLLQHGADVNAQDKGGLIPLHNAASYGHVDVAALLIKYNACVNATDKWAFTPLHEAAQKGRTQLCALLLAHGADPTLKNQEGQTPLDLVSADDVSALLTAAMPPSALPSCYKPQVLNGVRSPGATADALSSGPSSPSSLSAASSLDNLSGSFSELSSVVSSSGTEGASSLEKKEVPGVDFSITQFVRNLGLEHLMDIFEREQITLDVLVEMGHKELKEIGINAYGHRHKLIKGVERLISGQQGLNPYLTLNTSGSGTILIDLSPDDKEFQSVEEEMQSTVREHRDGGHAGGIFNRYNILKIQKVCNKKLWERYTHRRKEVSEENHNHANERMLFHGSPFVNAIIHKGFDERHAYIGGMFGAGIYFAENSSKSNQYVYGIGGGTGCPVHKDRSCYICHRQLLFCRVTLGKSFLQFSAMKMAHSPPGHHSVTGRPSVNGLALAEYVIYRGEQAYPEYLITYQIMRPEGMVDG
Described as above.

For test [3], the target named is NH2-terminally (His)6-tagged human tankyrase 1 (human) (UniProt O95271). Description: pull-down; as a2, in the presence of single- or double-stranded 42 bp telomeric or nontelomeric DNA oligonucleotides; data not shown; both purified.

Results are given in words; binding and its absence hold for the method and conditions named. For part of these data: In cells and extracts the contact can be indirect. Some entries that bind do so weakly or less than the wild type.

“FANCD2 (endogenous, HeLa) (from UniProt Q9BXW9 1-1451)”: the binding result in test [1] is “binds”; in test [2], “no binding”.
On to “Recombinant full-length wild-type FANCD2 (from UniProt Q9BXW9 1-1451)”, for which, in test [3], the binding entry is on record as “binds”.
